# The campaign covered roughly 310,000 compounds. About 17,000 (5.5%) were called active. The shares of active, inactive and inconclusive entries below differ from those in the screen. Calls follow the shape of the dose curve; as a rule, active = well fitted inhibition curve with a large enough effect; inconclusive = small, poorly fitted or top-dose-only effect, or effect the other way; inactive = no such curve, though single readings can be large or run the other way. Potencies beside an inconclusive call are fits to weak or partial responses and may not hold up.
# By UniProt entry, the sequences of proteins in these tests, tags left out. Where a name states a change or a piece, a line headed by the entry shows the natural chain unless it says otherwise.
# UniProt P51450: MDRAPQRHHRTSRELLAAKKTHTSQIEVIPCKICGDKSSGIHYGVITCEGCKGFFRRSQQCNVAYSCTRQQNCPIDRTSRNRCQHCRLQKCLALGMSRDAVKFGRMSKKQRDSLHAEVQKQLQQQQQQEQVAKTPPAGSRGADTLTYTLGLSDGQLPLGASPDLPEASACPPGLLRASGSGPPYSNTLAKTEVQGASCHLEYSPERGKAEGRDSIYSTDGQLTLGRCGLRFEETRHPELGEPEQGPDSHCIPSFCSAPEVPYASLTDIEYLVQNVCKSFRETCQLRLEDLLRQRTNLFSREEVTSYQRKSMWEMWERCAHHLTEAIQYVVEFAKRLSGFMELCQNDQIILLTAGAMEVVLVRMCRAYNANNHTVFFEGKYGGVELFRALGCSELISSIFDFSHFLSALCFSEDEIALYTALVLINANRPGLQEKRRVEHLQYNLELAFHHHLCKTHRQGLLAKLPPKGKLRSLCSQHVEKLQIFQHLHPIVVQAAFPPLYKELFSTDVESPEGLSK
# Target: Nuclear receptor ROR-gamma (Mus musculus) (UniProt P51450)
# Test: qHTS for inhibitors of ROR gamma transcriptional activity; also: nearly all actives have a fitted effect of over 60% in size
# Settings: Drosophila S2 Gal4-RORgamma UAS-luciferase reporter, 20 h; activity change, negative = inhibition: at 53.6 µM (top of the series)
# Procedure, shortened: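 Stably transfected Drosophila Schneider cells are the test system, with ROR gamma fused to Gal4 and luciferase under UAS control; luminescence is read after 20 hr of 700 uM copper sulfate induction at ambient temperature.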
# % is scaled to controls: 0 for no effect and ±100 for the full control effect; potency is read from the fitted curve at half-maximal effect.
Structure (SMILES),Potency,"activity change, negative = inhibition"
O=C(CNC(=O)c1ccccc1O)N/N=C/c1cc(Br)ccc1OC(=O)/C=C/c1ccco1,active: 5.62 µM,
COc1cc(N=Nc2cccc(S(N)(=O)=O)c2)c2ccccc2c1N,active: 11.2 µM,
Cc1cccc(C)c1NC(=S)N/N=C/c1ccccc1C(=O)O,"inconclusive: 10 µM [inhibitor, partial curve]",
N#C/C(C(=O)NCc1ccco1)=C1/SC(Cc2ccc(Cl)cc2)C(=O)N1c1ccccc1 (stereo unspecified),"inconclusive: 25.1 µM [inhibitor, single point]",
c1csc(C2=Nn3c(nnc3-c3ccncc3)SC2)c1,,inactive: 10.4%
Cc1nc2ccc(-c3nc4ccc(N)cc4[nH]3)cc2[nH]1,active: 11.2 µM,
COc1ccc(NCc2ccc3c(c2)OCO3)cc1Cl,"inconclusive: 2.51 µM [activator, full curve, poor fit]",
O=C(c1ccccc1)c1ccc(Cn2cc(-c3ccccc3)nn2)cc1,"inconclusive: 3.16 µM [activator, single point]",
Cc1ccc(/C=C/C(=O)Nc2nccs2)o1,"inconclusive: 31.6 µM [inhibitor, single point]",
NC(=O)CC(NC(=O)c1ccc(Br)cc1)c1ccc(N2CCN(c3ccc(F)cc3)CC2)c([N+](=O)[O-])c1 (stereo unspecified),"inconclusive: 22.4 µM [activator, partial curve, poor fit]",
S=c1nc(-c2cc(Cl)ccc2Cl)[nH][nH]1,"inconclusive: 1.41 µM [inhibitor, partial curve]",
C=CCOC(=O)C1=C[C@H](c2coc3ccccc3c2=O)C[C@H](OCc2ccc(CO)cc2)O1,,inactive: -23.5%
O=C(Nc1ccc(NC(=O)c2cccnc2)cc1)c1ccccc1,,inactive: 1.16%
CC1(C)CC(N=Cc2c(O)n(Cc3ccc4c(c3)OCO4)c(=O)c3ccccc23)CC(C)(C)N1,"inconclusive: 25.1 µM [inhibitor, single point]",
Nc1nc(NC(=O)c2cccc(S(=O)(=O)N3CCCCCC3)c2)nc(-c2ccccc2)n1,"inconclusive: 35.5 µM [inhibitor, single point]",
COc1ccccc1NC(=S)NC(=O)c1c(-c2ccccc2Cl)noc1C,active: 2.51 µM,
CCOC(=O)CNC(=O)c1sc(NC(=O)c2ccccc2F)nc1C,"inconclusive: 35.5 µM [inhibitor, single point]",
FC(F)(F)c1cccc(-n2c(Cn3nnc4ccccc43)n[nH]c2=S)c1,"inconclusive: 7.94 µM [inhibitor, partial curve]",
C=CCn1c(NC(=O)c2ccc(C)cc2)nc2ccccc21,active: 0.398 µM,
CCOc1ccccc1N1CCN(C(=O)CC(C)C)CC1,,inactive: -7.26%
CC(=O)N1N=C(c2cccc(Cl)c2)OC1c1ccc(C(C)C)cc1 (stereo unspecified),"inconclusive: 17.8 µM [inhibitor, single point]",
O=C(NC(=S)Nc1ccc(N2CCCCC2)cc1)c1cccs1,active: 3.16 µM,
CC(C)(C)c1ccc(-c2nnc(SCC(=O)NC3CCS(=O)(=O)C3)n2N)cc1 (stereo unspecified),"inconclusive: 35.5 µM [inhibitor, single point]",
Cc1ccc(-c2cc(C(=O)Nc3ccc(S(=O)(=O)Nc4nc(C)cc(C)n4)cc3)c3ccccc3n2)cc1,"inconclusive: 22.4 µM [activator, partial curve]",

Structure (SMILES),Potency,"activity change, negative = inhibition"
COc1ccc(C(=O)NCCNc2nc3cc(C)c(C)cc3cc2C)cc1,,inactive: -11.6%
O=C(Nc1nnc(-c2cccs2)o1)c1cccc(C(F)(F)F)c1,active: 0.112 µM,
CCOc1ccccc1C(=O)Nc1nnc(SCC(=O)Nc2cc(C)on2)s1,,inactive: -15%
CC(C)OCCCn1c(=S)[nH]c2cc3c(cc2c1=O)OCO3,active: 3.98 µM,
Cc1cc(N(C)C)c(C#N)c(N2CCCCC2)n1,"inconclusive: 0.0316 µM [inhibitor, full curve, poor fit]",
COc1ccc(OC)c(/C=C2\S/C(=N/NC(=O)c3ccc4ccccc4c3)NC2=O)c1,active: 1.41 µM,
CCOC(=O)C1(Cc2ccccc2)CCCN(CCO)C1 (stereo unspecified),,inactive: -5.79%
CCc1nnc(NC(=O)CC(=O)Nc2ccccc2C(=O)O)s1,"inconclusive: 10 µM [inhibitor, partial curve]",
CCOc1ccc2nc(Nc3nc(CSc4nnnn4-c4ccccc4)cc(=O)[nH]3)nc(C)c2c1,,inactive: 2.57%
CC(=O)c1cccc(CN2CCCC(C(=O)Nc3cccc(-n4cccn4)c3)C2)c1 (stereo unspecified),,inactive: -12.4%
CCn1c(SCc2nc(-c3cccs3)no2)nnc1-c1c[nH]c2ccccc12,"inconclusive: 20 µM [activator, single point]",
O=C1C(NS(=O)(=O)c2ccc(Br)cc2)=C(N2CCCCC2)C(=O)c2ccccc21,,inactive: -43.7%
O=C(CSc1nc2ccccc2[nH]1)N/N=C/C=C\c1ccccc1[N+](=O)[O-],"inconclusive: 15.8 µM [activator, partial curve]",
O=C(c1cccnc1)N1CCC(Oc2ccc(C(=O)N3CCCCO3)cc2)CC1,"inconclusive: 12.6 µM [activator, partial curve]",
CCCOP(=O)(c1ccc(N(C)C)cc1)C(Nc1ccccc1)c1ccc(C)cc1 (stereo unspecified),"inconclusive: 35.5 µM [activator, single point]",
COCCn1c(C)cc(C(=O)CSc2nc3ccccc3c(=O)n2Cc2ccco2)c1C,"inconclusive: 11.2 µM [activator, partial curve]",
CC1(C)C2CC=C(/C=N/NC(=O)c3ccc(Cl)cc3)C1C2 (stereo unspecified),active: 12.6 µM,
CC(C)c1cc2c(cc1S(=O)(=O)O)[C@@]1(C)CCC[C@@](C)(C(=O)O)[C@@H]1CC2,,inactive: 0.73%
COc1cc(/C=C(\C#N)C(=O)NC2CCCCC2C)ccc1OS(=O)(=O)c1ccc(C)cc1 (stereo unspecified),"inconclusive: 35.5 µM [inhibitor, single point]",
Cc1c(NC(=O)C(=O)/C=C(\O)c2ccc(Br)cc2)c(=O)n(-c2ccccc2)n1C,"inconclusive: 14.1 µM [activator, single point]",
CC(C)CC1CC(=O)OC1(C)C(=O)CSc1nc2ccccc2s1 (stereo unspecified),"inconclusive: 14.1 µM [inhibitor, single point]",
CCn1c(CSc2nc3ccccc3s2)nnc1SCC(=O)c1ccc2c(c1)OCCO2,"inconclusive: 35.5 µM [inhibitor, single point]",
Cc1nc2sc(C)c(C)c2c(=O)o1,"inconclusive: 3.98 µM [inhibitor, single point]",
COc1ccccc1[C@@H]1C(c2ccc(F)cc2)=NN(c2ccccc2)[C@H]1C(=O)N1CCOC1=O,inactive,

Structure (SMILES),Potency,"activity change, negative = inhibition"
Cc1nc(NS(=O)(=O)c2ccc(Br)cc2)c2c3c(sc2n1)CCC3,"inconclusive: 22.4 µM [activator, single point]",
CCOC(=O)c1cc(-c2cccc(C(F)(F)F)c2)nc2nc(SC)[nH]c(=O)c12,"inconclusive: 15.8 µM [activator, partial curve]",
O=C1NN=C(c2ccc(Cl)cc2)CC1c1c[nH]c2ccccc12 (stereo unspecified),"inconclusive: 15.8 µM [inhibitor, single point]",
O=C(Nc1ccc(F)cc1F)Nc1sccc1-c1nc2ccccc2s1,"inconclusive: 15.8 µM [inhibitor, partial curve]",
COc1ccc(CNc2ncnc3ccc(-c4c(C)noc4C)cc23)c(OC)c1,"inconclusive: 0.0112 µM [inhibitor, full curve, poor fit]",
O=C(N/N=C/c1cccs1)c1c[nH]c2ccccc12,"inconclusive: 6.31 µM [activator, single point]",
N#CCCN1CCN(S(=O)(=O)c2ccc(S(=O)(=O)NC3CCCC3)cc2)CC1,"inconclusive: 31.6 µM [activator, single point]",
CN(c1ccccc1)S(=O)(=O)c1cccc(NC(=O)Cc2c(F)cccc2Cl)c1,,inactive: 1.9%
CN(C)c1ccnc2sc(C(=O)c3ccc(Br)cc3)c(N)c12,,inactive: 41.8%
COc1ccccc1/C=C/C1(C(=O)NC2CCCC2)CC(=O)N1c1ccc(F)cc1 (stereo unspecified),,inactive: -13.5%
COC(=O)CN=Cc1c(C)[nH]n(-c2ccccc2)c1=O,,inactive: 0.117%
COc1ccc2c(c1)SCC/C2=C\CN1C(=O)CCC1=O,"inconclusive: 25.1 µM [activator, single point]",
Cc1nn(-c2nnc(C)c(=O)[nH]2)c(C)c1SCC(=O)Nc1ccc(F)cc1,"inconclusive: 12.6 µM [inhibitor, single point]",
Cc1cccc(C(=O)NNC(=O)C2CCN(C(=O)OC(C)(C)C)CC2)c1,,inactive: -1.36%
O=C(O)c1ccc(/C=N/NC(=O)c2ccc3c(c2)OCCO3)cc1,"inconclusive: 6.31 µM [inhibitor, single point]",
Cc1ccc(C)c(N2C(=O)CS/C2=N\NC(=O)c2ccccc2Cl)c1,"inconclusive: 6.31 µM [inhibitor, single point]",
Cc1cccc(NC(c2ccc(C)s2)c2ccc3ccc(C)nc3c2O)n1 (stereo unspecified),active: 10 µM,
CC(C)=NNC(=O)C1=NNC(=O)C1,,inactive: 0.65%
CCOC(CCn1c(SCc2ccc([N+](=O)[O-])cc2)nc2ccccc2c1=O)OCC,,inactive: -43.6%
COc1ccccc1C(=O)NCC(=O)NC(C)CCc1ccccc1 (stereo unspecified),active: 6.31 µM,
CC1CCN(c2ccc(C(=O)OCC(=O)NCCN3C(=O)CSC3=O)cc2[N+](=O)[O-])CC1,"inconclusive: 31.6 µM [activator, single point]",
O=C1Nc2ccccc2/C1=C\c1cccn1-c1ccc(OC(F)(F)F)cc1,"inconclusive: 11.2 µM [inhibitor, partial curve, poor fit]",
O=S(=O)(c1ccccc1)N1CCN(C(=S)Nc2ccc(F)cc2)CC1,,inactive: -14.7% [at 10 µM]

# Arranged by formula weight (largest number first): part of the list above
Structure (SMILES),Potency,"activity change, negative = inhibition"
CC1CCN(c2ccc(C(=O)OCC(=O)NCCN3C(=O)CSC3=O)cc2[N+](=O)[O-])CC1,"inconclusive: 31.6 µM [activator, single point]",
Cc1nc(NS(=O)(=O)c2ccc(Br)cc2)c2c3c(sc2n1)CCC3,"inconclusive: 22.4 µM [activator, single point]",
CCOC(=O)c1cc(-c2cccc(C(F)(F)F)c2)nc2nc(SC)[nH]c(=O)c12,"inconclusive: 15.8 µM [activator, partial curve]",
